The values that follow come from patent US20220289837A1, “Cystic Fibrosis Transmembrane Conductance Regulator Stabilizing Agents” (VIB VZW, priority 2019, published 2022).

By UniProt entry, the sequences of proteins in these tests, tags left out. Where a name states a change or a piece, a line headed by the entry shows the natural chain unless it says otherwise.
UniProt P13569: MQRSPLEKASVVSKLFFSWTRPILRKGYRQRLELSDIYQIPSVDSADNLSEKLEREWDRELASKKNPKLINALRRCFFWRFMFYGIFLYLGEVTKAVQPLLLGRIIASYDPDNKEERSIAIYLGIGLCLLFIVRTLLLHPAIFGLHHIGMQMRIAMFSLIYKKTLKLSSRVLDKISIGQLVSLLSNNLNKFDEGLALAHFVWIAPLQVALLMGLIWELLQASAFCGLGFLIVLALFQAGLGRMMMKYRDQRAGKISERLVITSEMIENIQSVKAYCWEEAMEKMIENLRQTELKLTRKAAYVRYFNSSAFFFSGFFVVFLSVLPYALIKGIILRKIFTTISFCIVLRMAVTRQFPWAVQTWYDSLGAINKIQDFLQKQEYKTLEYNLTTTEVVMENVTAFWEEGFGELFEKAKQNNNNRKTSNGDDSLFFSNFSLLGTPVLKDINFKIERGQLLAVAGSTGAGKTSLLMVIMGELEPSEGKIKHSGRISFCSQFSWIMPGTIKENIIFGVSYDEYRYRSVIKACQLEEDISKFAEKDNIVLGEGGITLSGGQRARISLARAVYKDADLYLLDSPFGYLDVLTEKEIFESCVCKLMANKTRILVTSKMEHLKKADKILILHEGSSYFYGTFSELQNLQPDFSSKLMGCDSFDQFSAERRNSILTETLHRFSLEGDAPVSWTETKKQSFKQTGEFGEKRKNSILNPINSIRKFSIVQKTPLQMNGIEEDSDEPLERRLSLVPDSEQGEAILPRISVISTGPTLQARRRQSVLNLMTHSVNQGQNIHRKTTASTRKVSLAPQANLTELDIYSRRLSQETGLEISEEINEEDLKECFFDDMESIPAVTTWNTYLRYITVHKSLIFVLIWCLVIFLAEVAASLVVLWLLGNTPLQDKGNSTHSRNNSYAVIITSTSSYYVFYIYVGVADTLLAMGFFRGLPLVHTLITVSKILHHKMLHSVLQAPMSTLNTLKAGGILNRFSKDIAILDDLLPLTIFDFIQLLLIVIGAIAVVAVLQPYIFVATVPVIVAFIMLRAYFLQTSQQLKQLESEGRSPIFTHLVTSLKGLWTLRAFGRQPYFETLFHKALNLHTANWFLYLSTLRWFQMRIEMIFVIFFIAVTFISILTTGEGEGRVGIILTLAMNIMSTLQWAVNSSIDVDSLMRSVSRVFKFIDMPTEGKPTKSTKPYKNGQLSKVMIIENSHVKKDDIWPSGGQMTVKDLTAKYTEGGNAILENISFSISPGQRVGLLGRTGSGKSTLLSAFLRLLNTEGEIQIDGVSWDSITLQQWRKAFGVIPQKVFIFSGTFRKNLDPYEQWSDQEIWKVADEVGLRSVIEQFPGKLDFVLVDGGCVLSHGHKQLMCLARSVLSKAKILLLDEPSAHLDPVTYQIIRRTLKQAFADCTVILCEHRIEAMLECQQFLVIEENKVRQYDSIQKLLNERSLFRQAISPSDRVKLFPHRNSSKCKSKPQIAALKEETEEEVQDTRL

No constants are given. Whether binding was seen depends on the method and setting. Some entries that bind do so weakly or less than the wild type.

Assay [1] concerns the target NBD1 (nucleotide-binding domain 1 of CFTR; construct not stated) (Homo sapiens (Human)) (UniProt P13569). Description: structural and functional analyses, data not shown.
Assay [2] has the same target. Briefly: crystal structure of the nanobody-NBD1 complex.

B1: Nanobody G5 (VHH)
VHH: QVQLQESGGGLVQAGGSLRLACAATGSIRNINTMGWYRQAPGKQRDMVAFITRAGNTDYADSVKGRFTISRDNARNTVYLRMNSLKPEDTATYYCHAEIAERSRPFYLTDDYWGQGTQVTVSS
Turning to B1, the binding result in assay [1] is “binds”.

B2: Nanobody T8 (VHH, not shown: small tags and cut ends)
VHH: QVQLQESGGGLVQPGGSLRLSCAASGSTSSINAMGWYRQAPGKQREPVAISSSGGDTRYAEPVKGRFTISRDNAQNKVYLQMNSLKPEDTAVYYCWLNWGRTSVNSWGQGTQVTVSS
For the molecule B2, the binding entry in assay [2] is listed as “binds”.
